# Measured values as given in PMC5996148.
# Protein sequences, listed by entry. Tags and fused reporters are not part of them. Lines headed by an entry give the natural chain unless they say otherwise; changes in a name come on top.
# UniProt P09471: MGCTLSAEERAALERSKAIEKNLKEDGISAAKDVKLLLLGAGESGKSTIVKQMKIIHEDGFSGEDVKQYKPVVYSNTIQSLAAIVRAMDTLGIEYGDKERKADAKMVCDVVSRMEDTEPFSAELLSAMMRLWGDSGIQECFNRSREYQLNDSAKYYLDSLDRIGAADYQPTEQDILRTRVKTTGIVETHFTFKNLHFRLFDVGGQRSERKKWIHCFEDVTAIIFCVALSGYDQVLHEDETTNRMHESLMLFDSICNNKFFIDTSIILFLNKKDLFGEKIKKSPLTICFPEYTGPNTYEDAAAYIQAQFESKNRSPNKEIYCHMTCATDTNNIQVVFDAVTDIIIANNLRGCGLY
# This is one part of the list. For some assays here: The source does not settle which construct or isoform was used.
# What was measured:
# Assay in all cases: protein microarray (ProtoArray v5.0), streptavidin-Alexa Fluor 647
# Settings in all cases: 3'-biotin; 20 mM Tris (pH 7.5), 5 mM MgCl2, 100 mM KCl, 0.1% Tween-20, A/T-rich and random oligonucleotide blockers; temperature not stated; high values mean tight binding
# GAPDHS (human) = tested on: GAPDHS (human)
# [1] = tested on: GAS2-like protein 3 (human)
# GBP6 (human) = tested on: GBP6 (human)
# GCA (human) = tested on: GCA (human)
# GCLM (human) = tested on: GCLM (human)
# GDPD5 (human) = tested on: GDPD5 (human)
# GFPT1 (human) = tested on: GFPT1 (human)
# GGA2 (human) = tested on: GGA2 (human)
# GGT6 (human) = tested on: GGT6 (human)
# GIF (human) = tested on: GIF (human)
# GIMAP6 (human) = tested on: GIMAP6 (human)
# GLYATL1 (human) = tested on: GLYATL1 (human)
# GLYATL2 (human) = tested on: GLYATL2 (human)
# GLYCTK (human) = tested on: GLYCTK (human)
# GMEB1 (human) = tested on: GMEB1 (human)
# GMFB (human) = tested on: GMFB (human)
# GNAO1 = GNAO1 (UniProt P09471)
# GNG13 (human) = tested on: GNG13 (human)
# GNG4 (human) = tested on: GNG4 (human)
# GNGT1 (human) = tested on: GNGT1 (human)
sequence,measurement,setting,value
GGTGACAGGGGTATGGGGAGGGG [G4-2 biotinylated (Ct1)],binding signal,GAPDHS (human),-0.382 z-score
same,binding signal,[1],3.44 z-score
same,binding signal,GBP6 (human),-0.376 z-score
same,binding signal,GCA (human),-0.388 z-score
same,binding signal,GCLM (human),-0.376 z-score
same,binding signal,GDPD5 (human),-0.382 z-score
same,binding signal,GFPT1 (human),-0.362 z-score
same,binding signal,GGA2 (human),-0.386 z-score
same,binding signal,GGT6 (human),-0.37 z-score
same,binding signal,GIF (human),-0.37 z-score
same,binding signal,GIMAP6 (human),-0.387 z-score
same,binding signal,GLYATL1 (human),-0.383 z-score
same,binding signal,GLYATL2 (human),-0.363 z-score
same,binding signal,GLYCTK (human),-0.374 z-score
same,binding signal,GMEB1 (human),-0.378 z-score
same,binding signal,GMFB (human),-0.386 z-score
same,binding signal,GNAO1,-0.369 z-score
same,binding signal,GNG13 (human),-0.403 z-score
same,binding signal,GNG4 (human),-0.38 z-score
same,binding signal,GNGT1 (human),-0.384 z-score

# Two neighbouring entries out of the list so far:
sequence,measurement,setting,value
GGTGACAGGGGTATGGGGAGGGG [G4-2 biotinylated (Ct1)],binding signal,GGT6 (human),-0.37 z-score
same,binding signal,GIF (human),-0.37 z-score
